PubChem BioAssay AID1259425 | University of Nebraska Medical Center – 2018
Here is an unselected part of about 14,000 deposited reagents. Not given: the time to read-out.

Purpose: 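Compare each knockdown with KSR1 silencing using changes in marker transcripts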 (primary screen)
Cells: HCT116 human colon cancer cells
Knock-down reagent: siRNA pool against human genes, 50 nM siRNA
Detection: 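After 50 nM siRNA pool, branched-DNA assay measures six marker transcripts per well, minus blank, normalised to the geometric mean of two housekeeping transcripts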
Reading the numbers: BNIP3L mRNA: higher = more BNIP3L transcript after knockdown; NDRG1 mRNA: higher = more NDRG1 transcript after knockdown; BNIP3 mRNA: higher = more BNIP3 transcript after knockdown; ALDOC mRNA: higher = more ALDOC transcript after knockdown; ACSL5 mRNA: higher = more ACSL5 transcript after knockdown

| Target gene | BNIP3L mRNA, set 1 | NDRG1 mRNA, set 1 | BNIP3 mRNA, set 1 | ALDOC mRNA, set 1 | ACSL5 mRNA, set 1 |
| --- | --- | --- | --- | --- | --- |
| NLRP13 | 0.134 | 0.157 | 0.421 | 0.0214 | 0.172 |
| MRPS18C | 0.347 | 0.691 | 0.553 | 0.035 | 0.199 |
| HDAC2 | 0.0771 | 0.173 | 0.151 | 0.0144 | 0.231 |
| FNDC1 | 0.123 | 0.144 | 0.33 | 0.0343 | 0.135 |
| LST1 | 0.216 | 0.0722 | 0.624 | 0.196 | 0.367 |
| HERC4 | 0.101 | 0.221 | 0.317 | 0.0491 | 0.185 |
| TLK1 | 0.124 | 0.0574 | 0.307 | 0.00682 | 0.256 |
| HOPX | 0.0949 | 0.132 | 0.266 | 0.046 | 0.0978 |
| NOP58 | 0.17 | 0.258 | 0.508 | 0.0609 | 0.201 |
| WDR35 | 0.109 | 0.15 | 0.382 | 0.0264 | 0.174 |
| CTDNEP1 | 0.03 | 0.432 | 0.305 | 0.0557 | 0.332 |
| BANP | 0.0566 | 0.0655 | 0.245 | 0.0139 | 0.29 |
| REV1 | 0.0974 | 0.209 | 0.26 | 0.0268 | 0.15 |
| NCOA6 | 0.0423 | 0.136 | 0.292 | 0.0302 | 0.145 |
| CREBBP | 0.153 | 0.138 | 0.325 | 0.0387 | 0.138 |
| HBD | 0.0948 | 0.135 | 0.241 | 0.0132 | 0.133 |
| MYD88 | 0.0661 | 0.0987 | 0.3 | 0.0371 | 0.262 |
| HOXC10 | 0.0952 | 0.273 | 0.401 | 0.0174 | 0.376 |
| ZNF839 | 0.19 | 0.302 | 0.402 | 0.0183 | 0.258 |
| KCNH1 | 0.0817 | 0.431 | 0.294 | 0.0266 | 0.242 |
| SP2 | 0.212 | 1.84 | 0.343 | 0.0805 | 0.0738 |
| KAT14 | 0.171 | 0.419 | 0.389 | 0.0389 | 0.269 |
| LDHC | 0.249 | 0.153 | 0.272 | 0.0324 | 0.104 |
| MUC7 | 0.195 | 0.707 | 0.394 | 0.18 | 0.185 |
| CLN3 | 0.128 | 0.107 | 0.416 | 0.0198 | 0.142 |
| THG1L | 0.0697 | 0.298 | 0.319 | 0.0187 | 0.0961 |

A portion taken from the entries so far, as a working copy:
| Target gene | BNIP3L mRNA, set 1 | NDRG1 mRNA, set 1 | BNIP3 mRNA, set 1 | ALDOC mRNA, set 1 | ACSL5 mRNA, set 1 |
| --- | --- | --- | --- | --- | --- |
| CREBBP | 0.153 | 0.138 | 0.325 | 0.0387 | 0.138 |
| HBD | 0.0948 | 0.135 | 0.241 | 0.0132 | 0.133 |
| MYD88 | 0.0661 | 0.0987 | 0.3 | 0.0371 | 0.262 |
| HOXC10 | 0.0952 | 0.273 | 0.401 | 0.0174 | 0.376 |
| ZNF839 | 0.19 | 0.302 | 0.402 | 0.0183 | 0.258 |
| KCNH1 | 0.0817 | 0.431 | 0.294 | 0.0266 | 0.242 |

The list goes on.
| Target gene | BNIP3L mRNA, set 1 | NDRG1 mRNA, set 1 | BNIP3 mRNA, set 1 | ALDOC mRNA, set 1 | ACSL5 mRNA, set 1 |
| --- | --- | --- | --- | --- | --- |
| PSMC1 | 0.171 | 1.94 | 0.356 | 0.0221 | 0.155 |
| KIF18A | 0.074 | 0.0773 | 0.313 | 0.0336 | 0.129 |
| ATOSB | 0.106 | 0.343 | 0.289 | 0.0123 | 0.177 |
| RFC2 | 0.123 | 0.367 | 0.167 | 0.0156 | 0.172 |
| COPZ1 | 0.683 | 0.826 | 0.949 | 0.0543 | 0.221 |
| HDAC7 | 0.128 | 0.138 | 0.217 | 0.0102 | 0.288 |
| ACSS3 | 0.2 | 0.191 | 0.226 | 0.0156 | 0.171 |
| SFTPD | 0.134 | 0.255 | 0.397 | 0.0121 | 0.2 |
| ADGRE2 | 0.0929 | 0.0613 | 0.275 | 0.027 | 0.0467 |
| NPM1 | 0.185 | 0.167 | 0.272 | 0.0153 | 0.237 |
| SLC25A23 | 0.0412 | 0.233 | 0.277 | 0.0364 | 0.125 |
| ADAMTS20 | 0.0777 | 0.182 | 0.18 | 0.0151 | 0.172 |
| MAGEA6 | 0.0454 | 0.0609 | 0.201 | 0.0235 | 0.113 |
| NPM3 | 0.0816 | 0.116 | 0.325 | 0.0279 | 0.0631 |
| ZNF397 | 0.137 | 0.147 | 0.224 | 0.0421 | 0.354 |
| WDR18 | 0.174 | 0.931 | 0.336 | 0.0534 | 0.751 |
| GNL3LP1 | 0.131 | 0.114 | 0.244 | 0.0182 | 0.17 |
| CEP250 | 0.14 | 0.248 | 0.617 | 0.0471 | 0.291 |
| ADCY9 | 0.0534 | 0.2 | 0.281 | 0.0221 | 0.107 |
| CASQ1 | 0.188 | 0.44 | 0.502 | 0.0172 | 0.315 |
| TTYH3 | 0.139 | 0.163 | 0.314 | 0.0265 | 0.0377 |
| RAPGEF1 | 0.0923 | 0.166 | 0.266 | 0.014 | 0.168 |
| DUS2 | 0.0619 | 0.132 | 0.19 | 0.0129 | 0.145 |
| CEBPZ | 0.492 | 0.304 | 0.521 | 0.0234 | 0.154 |
